Laboratory results as given in patent publication US9931760B2, “Functionalized polyorganosiloxanes or silanes for the treatment of lignocellulosic materials” (Momentive Performance Materials GmbH, priority 2011, dated 2018).

What was measured:
[1] = Water absorption of treated wood samples immersed in water (weight gain after 2, 4, 6 and 24 hours)
[2] = Weight increase (Weight Percent Gain) of wood by the treatment
[3] = Bulking and swelling-shrinkage efficiency (ASE) of treated wood

For `CC(=O)OC(C)=O` [Example 4, acetic anhydride, reference compound], the “reduction of water absorption after 24 hours, 4th water absorption” value ([1]; 4th water absorption, pine splint, compared to control) was −34.9% and the “water absorption [%] 1. (reduction of water absorption after 24 hours, first water absorption)” value ([1]; first water absorption, after 24 hours, compared to untreated control) was −12.8%.
For `CCC[Si](OC(C)=O)(OC(C)=O)OC(C)=O` [Example 3, propyltriacetoxysilane], the “percentage weight increase relating to the initial weight” value ([2]; in average, kiln dried, after storage or immersion in water) was “approximately 68%” and the “reduced water absorption after 24 hours compared to untreated reference” value ([1]; pine splint and beech, after 24 hours) was “about 70 wt-%”.
With `CCC[Si](OC(C)=O)(OC(C)=O)OC(C)=O` [Example 2, propyltriacetoxysilane] the “average weight increase in the kiln dry state” value ([2]; based on the initial weights of the 10 samples) was “about 14 wt-%”, the “water absorption after 24 hours lower compared to the control” value ([1]; pine splint and beech, 30 wt-% in acetic acid, 5 hours at 120° C., after 24 hours) was “approximately 25%” and the “swelling-shrinkage efficiency (ASE)” value ([3]; in average, compared to the untreated reference) was “about 50%”. The “cross-sectional area increase (bulking)” value ([3]; pine splint and beech, 30 wt-% in acetic acid, 5 hours at 120° C.) was 7%.
